From PMC11474084, “Capturing a methanogenic carbon monoxide dehydrogenase/acetyl-CoA synthase complex via cryogenic electron microscopy” (Proceedings of the National Academy of Sciences of the …, 2024)
Results are given in words; binding and its absence hold for the method and conditions named. Some binding calls cover weakened binding; strength is not graded here.

Protein sequences, listed by entry. Tags and fused reporters are not part of them.
UniProt A0A0E3NEI1: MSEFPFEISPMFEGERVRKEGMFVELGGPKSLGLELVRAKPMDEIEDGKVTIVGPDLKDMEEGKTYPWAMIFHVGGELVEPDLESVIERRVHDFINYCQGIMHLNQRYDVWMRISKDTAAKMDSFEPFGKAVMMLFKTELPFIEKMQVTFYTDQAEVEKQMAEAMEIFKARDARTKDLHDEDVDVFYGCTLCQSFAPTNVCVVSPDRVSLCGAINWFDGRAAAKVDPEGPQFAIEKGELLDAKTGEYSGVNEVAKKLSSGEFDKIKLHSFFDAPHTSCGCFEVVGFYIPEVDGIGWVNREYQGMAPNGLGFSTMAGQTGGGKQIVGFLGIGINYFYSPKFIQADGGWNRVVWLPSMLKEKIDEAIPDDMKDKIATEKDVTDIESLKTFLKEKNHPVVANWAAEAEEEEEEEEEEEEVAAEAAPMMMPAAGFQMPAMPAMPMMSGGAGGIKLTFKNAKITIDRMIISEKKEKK
UniProt A0A0E3KZD0: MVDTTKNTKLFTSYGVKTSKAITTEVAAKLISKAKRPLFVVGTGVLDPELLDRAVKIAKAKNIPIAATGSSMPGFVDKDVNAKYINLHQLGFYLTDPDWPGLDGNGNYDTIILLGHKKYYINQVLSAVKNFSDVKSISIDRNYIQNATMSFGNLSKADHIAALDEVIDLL

Experiments:
[1] = biological target: MetCODH α2ε2 heterotetramer (Methanosarcina thermophila); test: cryo-EM structure; purified native ACDS complex, 4 mg/mL in 25 mM MOPS, 25 mM Na2SO4, pH 7.2; chameleon-plunged, dispense-to-plunge time 150 ms; on-grid dissociation gave CODH tetramer (2.8 Å), CODH/ACS pentamer and hexamer (3.2 Å each); both purified
[2] = biological target: Methanosarcina thermophila carbon monoxide dehydrogenase (MetCODH) α subunit (Methanosarcina thermophila); test: as above
[3] = biological target: Methanosarcina thermophila carbon monoxide dehydrogenase (MetCODH) α subunit (Methanosarcina thermophila); test: cryo-EM structure; purified native ACDS complex, 1 mg/mL in 25 mM MOPS, 25 mM Na2SO4, pH 7.2, with 0.1% glutaraldehyde; blot-plunged on Cryoplunge 3 (Cp3), anaerobic; on-grid dissociation gave CODH tetramer only (3.3 Å); both purified

Methanosarcina thermophila acetyl-CoA synthase (MetACS) β subunit (from UniProt A0A0E3NEI1 1-472) (enzyme)
binding [1]: binds

Methanosarcina thermophila carbon monoxide dehydrogenase (MetCODH) ε subunit (from UniProt A0A0E3KZD0 1-170)
binding [2]: binds
binding [3]: binds
